Test: general procedure: peptide synthesis; SASRIN resin (1.08 mmol eq/g) for peptide acids; Boc-Ala-PAM resin (0.59 mmol/g) for polyamide; HBTU/DIEA
Conditions: conjugation step

Substance | conjugation yield (on polyamide 1 (2.67 umol)) [%] | conjugation yield (on polyamide 1 (2.8 umol)) [%]
2 (R=Ac-Phe-Tyr-Pro-Trp-Met-Lys-Gly-) (FYPWMKG) | 62 | 
3 (R=Ac-Phe-Tyr-Pro-Ala-Ala-Lys-Gly-) (FYPAAKG) |  | 26
